The target of this assay is T1, human CD11d/CD18 expressed on JY cells (human, UniProt Q13349 18-1161; P05107 23-769).
T1 construct: whole, on cells
Kind of assay: FACS on JY cells expressing human CD11d/CD18.

Protein sequences, listed by entry. Tags and fused reporters are not part of them. Lines headed by an entry give the natural chain unless they say otherwise; changes in a name come on top.
UniProt Q13349: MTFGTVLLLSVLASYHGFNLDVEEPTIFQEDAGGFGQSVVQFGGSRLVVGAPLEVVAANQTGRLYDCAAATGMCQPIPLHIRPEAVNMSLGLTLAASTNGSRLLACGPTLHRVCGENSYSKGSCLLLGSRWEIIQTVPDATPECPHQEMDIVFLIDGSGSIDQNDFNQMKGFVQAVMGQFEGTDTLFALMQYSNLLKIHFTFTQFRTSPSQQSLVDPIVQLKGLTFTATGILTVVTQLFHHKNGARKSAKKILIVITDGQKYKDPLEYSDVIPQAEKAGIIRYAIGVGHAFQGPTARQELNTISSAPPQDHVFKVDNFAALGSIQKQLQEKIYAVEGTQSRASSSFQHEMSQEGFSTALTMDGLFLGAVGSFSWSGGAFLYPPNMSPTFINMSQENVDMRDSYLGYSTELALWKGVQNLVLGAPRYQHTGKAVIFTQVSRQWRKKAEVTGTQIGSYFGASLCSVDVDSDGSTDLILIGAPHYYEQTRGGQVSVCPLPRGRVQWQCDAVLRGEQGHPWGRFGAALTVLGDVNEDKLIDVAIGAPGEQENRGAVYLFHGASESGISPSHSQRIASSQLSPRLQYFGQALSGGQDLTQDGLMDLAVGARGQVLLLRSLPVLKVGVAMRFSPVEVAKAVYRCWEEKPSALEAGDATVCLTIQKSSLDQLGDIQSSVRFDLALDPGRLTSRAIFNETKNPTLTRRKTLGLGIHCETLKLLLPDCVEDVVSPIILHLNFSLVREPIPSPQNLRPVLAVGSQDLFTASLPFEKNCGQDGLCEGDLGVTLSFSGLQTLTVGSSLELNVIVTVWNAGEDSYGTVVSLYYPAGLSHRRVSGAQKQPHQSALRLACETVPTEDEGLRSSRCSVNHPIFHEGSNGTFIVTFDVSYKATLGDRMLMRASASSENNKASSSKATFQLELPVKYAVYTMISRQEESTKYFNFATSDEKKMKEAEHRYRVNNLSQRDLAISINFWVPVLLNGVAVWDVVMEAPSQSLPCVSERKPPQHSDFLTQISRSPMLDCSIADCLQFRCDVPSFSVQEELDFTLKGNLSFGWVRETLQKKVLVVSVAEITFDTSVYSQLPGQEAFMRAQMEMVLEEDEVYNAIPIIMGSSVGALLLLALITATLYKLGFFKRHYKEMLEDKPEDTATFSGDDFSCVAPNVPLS

These are yes or no findings as the source states them, for the method shown. Some entries that bind do so weakly or less than the wild type.

B1: Exemplified Antibody 2 (antibody, human IgG4 S228P, kappa, F234A L235A, V domains shown)
VH: QVQLVQSGAEVKKPGASVKVSCKASGYTFGDYNMHWVRQAPGQGLEWMGYIYPYNGDTGYNQNFKSRVTMTRDTSTSTVYMELSSLRSEDTAVYYCARGLVHYGYLNVAMDSWGQGTLVTVSS
VL: DIQMTQSPSSLSASVGDRVTITCRASRSIGTRIHWYQQKPGKAPKLLIYFASGSISGVPSRFSGSGSGTDFTLTISSLQPEDFATYYCQQSKIFPTTFGGGTKLEIKR
notes: Humanized antibody, full LC (kappa) and HC (IgG4)
On to B1, for which the binding entry is given as “binds”.

The values above are taken from US20230183355A1 (UNIVERSITY OF WESTERN ONTARIO, published 2023).
